Reference: US20070270332A1, “METHODS AND ASSAYS USEFUL IN THE TREATMENT OF ALCOHOL DEPENDENCE OR ALCOHOL ABUSE” (priority 1998, published 2007)
At least one structure is not confirmed: it was looked up by name or label, or the drawing left a doubt.

Tested on: alcohol preferring Syrian golden hamsters
Assay: Ethanol intake suppression (antidipsotropic activity) in alcohol preferring Syrian golden hamsters

For `O=c1cc(-c2ccccc2)oc2cc(O)cc(O)c12` [Compound 21, Chrysin], the ethanol intake suppression (equivalent doses (0.07 meq/hamster/day), FIG. 1) was “did not suppress ethanol intake” and the “suppression of hamster ethanol intake” value (i.p. dose or equivalent doses) was “do not exert any significant effect on ethanol intake”.
